From patent US20130338130A1 (priority 2009, published 2013)
Several values for one entry are separate records, joined by “and”; a condition that tells them apart may be missing. Equal entries are not always repeated. Where two headings read alike, the source gives them in different places. This continues a long series; more values of the same kind are listed elsewhere.

Test system: ATCC strain 43300 Staphylococcus aureus
Settings: 60 μg/ml oxacillin + MSM (% in label); for survival (cfu/ml): triplicate platings

CS(C)(=O)=O [MSM, Methylsulfonylmethane]
survival (cfu/ml) (48 hours, listed as 16% MSM): 9.0 × 10^1 cfu/ml and 6.0 × 10^1 cfu/ml | survival, Average Log (72 hours, listed as 5% MSM): 5.5 Log | survival, Average Log (72 hours, listed as 6% MSM): 2.8 Log | survival, Average Log (72 hours, listed as 7% MSM): 5.5 Log | survival, Average Log (72 hours, listed as 8% MSM): 5.5 Log | survival, Average Log (72 hours, listed as 9% MSM): 2.5 Log | survival, Average Log (72 hours, listed as 10% MSM): 2.6 Log | survival (cfu/ml) (72 hours, listed as 5% MSM): >3.3 × 10^5 cfu/ml | survival (cfu/ml) (72 hours, listed as 6% MSM): 6.5 × 10^2 cfu/ml and 6.4 × 10^2 cfu/ml and 6.1 × 10^2 cfu/ml | survival (cfu/ml) (72 hours, listed as 7% MSM): >3.3 × 10^5 cfu/ml | survival (cfu/ml) (72 hours, listed as 8% MSM): >3.3 × 10^5 cfu/ml | survival (cfu/ml) (72 hours, listed as 9% MSM): 3.3 × 10^3 cfu/ml and 3.2 × 10^3 cfu/ml | survival (cfu/ml) (72 hours, listed as 10% MSM): 3.9 × 10^2 cfu/ml and 4.0 × 10^2 cfu/ml and 3.4 × 10^2 cfu/ml | survival (cfu/ml) (72 hours, listed as 11% MSM): 1.0 × 10^1 cfu/ml and 2.0 × 10^1 cfu/ml | survival (cfu/ml) (72 hours, listed as 12% MSM): 2.8 × 10^2 cfu/ml and 2.1 × 10^2 cfu/ml and 2.5 × 10^2 cfu/ml | survival (cfu/ml) (72 hours, listed as 13% MSM): 1.0 × 10^1 cfu/ml | survival (cfu/ml) (72 hours, listed as 14% MSM): 2.0 × 10^1 cfu/ml and 4.0 × 10^1 cfu/ml | survival (cfu/ml) (72 hours, listed as 15% MSM): 0 cfu/ml | survival (cfu/ml) (72 hours, listed as 16% MSM): 6.0 × 10^1 cfu/ml and 5.0 × 10^1 cfu/ml | survival, Average Log (96 hours, listed as 5% MSM): 5.5 Log | survival, Average Log (96 hours, listed as 6% MSM): 3.6 Log | survival, Average Log (96 hours, listed as 7% MSM): 5.5 Log | survival, Average Log (96 hours, listed as 8% MSM): 5.5 Log | survival, Average Log (96 hours, listed as 9% MSM): 5.5 Log | survival, Average Log (96 hours, listed as 10% MSM): 3.6 Log | survival, Average Log (96 hours, listed as 12% MSM): 3.5 Log | survival, Average Log (96 hours, listed as 13% MSM): 1.6 Log | survival, Average Log (96 hours, listed as 16% MSM): 1.3 Log | survival (cfu/ml) (96 hours, listed as 5% MSM): >3.3 × 10^5 cfu/ml | survival (cfu/ml) (96 hours, listed as 6% MSM): 4.4 × 10^3 cfu/ml and 4.5 × 10^3 cfu/ml | survival (cfu/ml) (96 hours, listed as 7% MSM): >3.3 × 10^5 cfu/ml | survival (cfu/ml) (96 hours, listed as 8% MSM): >3.3 × 10^5 cfu/ml | survival (cfu/ml) (96 hours, listed as 9% MSM): >3.3 × 10^5 cfu/ml | survival (cfu/ml) (96 hours, listed as 10% MSM): 3.9 × 10^3 cfu/ml and 4.0 × 10^3 cfu/ml and 3.5 × 10^3 cfu/ml | survival (cfu/ml) (96 hours, listed as 11% MSM): 0 cfu/ml | survival (cfu/ml) (96 hours, listed as 12% MSM): 3.0 × 10^3 cfu/ml and 3.5 × 10^3 cfu/ml and 3.1 × 10^3 cfu/ml | survival (cfu/ml) (96 hours, listed as 13% MSM): 4.0 × 10^1 cfu/ml and 5.0 × 10^1 cfu/ml | survival (cfu/ml) (96 hours, listed as 14% MSM): 0 cfu/ml | survival (cfu/ml) (96 hours, listed as 15% MSM): 0 cfu/ml | survival (cfu/ml) (96 hours, listed as 16% MSM): 2.0 × 10^1 cfu/ml and 3.0 × 10^1 cfu/ml | survival, Average Log (120 hours, listed as 5% MSM): 5.5 Log | survival, Average Log (120 hours, listed as 6% MSM): 4.5 Log | survival, Average Log (120 hours, listed as 7% MSM): 5.5 Log | survival, Average Log (120 hours, listed as 8% MSM): 5.5 Log | survival, Average Log (120 hours, listed as 9% MSM): 5.5 Log | survival, Average Log (120 hours, listed as 10% MSM): 4.2 Log | survival, Average Log (120 hours, listed as 11% MSM): 0 Log | survival, Average Log (120 hours, listed as 12% MSM): 4.2 Log | survival, Average Log (120 hours, listed as 13% MSM): 0 Log | survival, Average Log (120 hours, listed as 14% MSM): 0 Log | survival, Average Log (120 hours, listed as 15% MSM): 0 Log | survival, Average Log (120 hours, listed as 16% MSM): 0 Log | survival (cfu/ml) (120 hours, listed as 5% MSM): >3.3 × 10^5 cfu/ml | survival (cfu/ml) (120 hours, listed as 6% MSM): 3.7 × 10^4 cfu/ml and 3.4 × 10^4 cfu/ml and 2.4 × 10^4 cfu/ml | survival (cfu/ml) (120 hours, listed as 7% MSM): >3.3 × 10^5 cfu/ml | survival (cfu/ml) (120 hours, listed as 8% MSM): >3.3 × 10^5 cfu/ml | survival (cfu/ml) (120 hours, listed as 9% MSM): >3.3 × 10^5 cfu/ml | survival (cfu/ml) (120 hours, listed as 10% MSM): 1.6 × 10^4 cfu/ml and 1.5 × 10^4 cfu/ml and 1.7 × 10^4 cfu/ml | survival (cfu/ml) (120 hours, listed as 11% MSM): 0 cfu/ml | survival (cfu/ml) (120 hours, listed as 12% MSM): 1.72 × 10^4 cfu/ml and 1.6 × 10^4 cfu/ml and 1.5 × 10^4 cfu/ml | survival (cfu/ml) (120 hours, listed as 13% MSM): 0 cfu/ml | survival (cfu/ml) (120 hours, listed as 14% MSM): 0 cfu/ml | survival (cfu/ml) (120 hours, listed as 15% MSM): 0 cfu/ml | survival (cfu/ml) (120 hours, listed as 16% MSM): 0 cfu/ml
